Measured values reported in publication doi:10.1101/2021.03.08.434331.
Results are given in words; binding and its absence hold for the method and conditions named. Binding seen in cells or lysates may run through a third protein. Sequences can lack the tags named with a protein.

The chains behind the UniProt entries cited, without tags or fusion partners. Where a name states a change or a piece, a line headed by the entry shows the natural chain unless it says otherwise.
UniProt B7UM99, whole entry, looked up, stated change not applied: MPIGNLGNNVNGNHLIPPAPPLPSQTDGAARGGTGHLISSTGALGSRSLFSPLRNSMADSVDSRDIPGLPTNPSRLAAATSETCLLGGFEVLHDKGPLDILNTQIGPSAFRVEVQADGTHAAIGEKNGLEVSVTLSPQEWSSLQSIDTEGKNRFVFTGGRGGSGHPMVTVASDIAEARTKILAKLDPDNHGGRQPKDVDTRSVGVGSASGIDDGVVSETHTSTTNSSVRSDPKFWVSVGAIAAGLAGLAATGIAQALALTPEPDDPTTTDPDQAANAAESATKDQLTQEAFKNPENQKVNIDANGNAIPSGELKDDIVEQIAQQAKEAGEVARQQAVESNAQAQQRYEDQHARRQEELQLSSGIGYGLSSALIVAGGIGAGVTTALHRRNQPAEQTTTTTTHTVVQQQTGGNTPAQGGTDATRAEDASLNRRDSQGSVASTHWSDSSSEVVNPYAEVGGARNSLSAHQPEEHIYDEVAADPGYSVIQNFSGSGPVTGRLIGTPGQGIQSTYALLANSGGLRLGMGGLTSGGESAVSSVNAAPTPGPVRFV

Columns and labels:
GST-CBL-C (human) = molecular target: T1, GST-CBL-C (human) (UniProt Q9ULV8); assay: pull-down
T1 sequence: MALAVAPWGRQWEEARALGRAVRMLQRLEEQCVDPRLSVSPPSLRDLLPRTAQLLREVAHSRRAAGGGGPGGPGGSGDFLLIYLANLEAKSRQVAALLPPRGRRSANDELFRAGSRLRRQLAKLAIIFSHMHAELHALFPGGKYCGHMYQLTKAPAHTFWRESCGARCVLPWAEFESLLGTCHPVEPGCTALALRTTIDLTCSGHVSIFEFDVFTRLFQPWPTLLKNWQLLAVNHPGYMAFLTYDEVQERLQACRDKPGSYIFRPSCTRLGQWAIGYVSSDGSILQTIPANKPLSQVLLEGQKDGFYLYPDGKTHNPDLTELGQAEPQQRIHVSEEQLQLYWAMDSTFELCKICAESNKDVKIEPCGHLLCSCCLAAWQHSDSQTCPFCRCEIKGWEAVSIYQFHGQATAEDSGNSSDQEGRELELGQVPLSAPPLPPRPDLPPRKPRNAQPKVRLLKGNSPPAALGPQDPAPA

[1] = molecular target: GST-tagged Tir Y454F (Escherichia coli O127:H6 (strain E2348/69 / EPEC)) (UniProt B7UM99); assay: pull-down

For “6Myc-tagged Tir Y454F (from UniProt B7UM99 1-550)”, the binding (GST-CBL-C (human)) was “no binding”.

B1: FLAG-tagged CBL-C WT (enzyme, UniProt Q9ULV8 1-474)
chain: MALAVAPWGRQWEEARALGRAVRMLQRLEEQCVDPRLSVSPPSLRDLLPRTAQLLREVAHSRRAAGGGGPGGPGGSGDFLLIYLANLEAKSRQVAALLPPRGRRSANDELFRAGSRLRRQLAKLAIIFSHMHAELHALFPGGKYCGHMYQLTKAPAHTFWRESCGARCVLPWAEFESLLGTCHPVEPGCTALALRTTIDLTCSGHVSIFEFDVFTRLFQPWPTLLKNWQLLAVNHPGYMAFLTYDEVQERLQACRDKPGSYIFRPSCTRLGQWAIGYVSSDGSILQTIPANKPLSQVLLEGQKDGFYLYPDGKTHNPDLTELGQAEPQQRIHVSEEQLQLYWAMDSTFELCKICAESNKDVKIEPCGHLLCSCCLAAWQHSDSQTCPFCRCEIKGWEAVSIYQFHGQATAEDSGNSSDQEGRELELGQVPLSAPPLPPRPDLPPRKPRNAQPKVRLLKGNSPPAALGPQDPAPA
In the case of B1, the binding [1] is reported as “no binding”.
